Reference: PubChem BioAssay AID2685 (National Center for Advancing Translational Sciences (NCATS), 2010)
The list shows a part of the results. These are further read-outs of the screen, such as a control signal, another cell line or another target. No call is given for them. Compounds called inactive in the main read-out are mostly missing here. Words in brackets tell the shape of the fitted curve; partial curves, single points and poor fits give uncertain potencies.

Experiment: qHTS Assay for Lipid Storage Modulators in Drosophila S3 Cells;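 as to cell number change: cells counted by Cell Tracker Red CMTPX staining in the red channel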
Settings: BODIPY lipid droplet fluorescence, 18-24 h; for cell number change: measured here: cell count max response, cells fed with added oleic acid
Summary of the method: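 Drosophila S3 cells loaded with oleic acid (400 uM, as added) and compounds at several concentrations; lipid droplets imaged by 488-nm laser-scanning cytometry, 500–530 nm intensity and object ratio to cell channel. Percent activity normalized to 20 uM Triacsin C.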

[1] = measured here: cell number channel AC50, cells fed with added oleic acid
[2] = measured here: lipid fluorescence (Fed channel) AC50, cells fed with added oleic acid

SMILES: Cn1nc(C(F)(F)F)c2cc(C(=O)Nc3ccc(C(F)(F)F)cc3)sc21
- cell number change: -39.3%
- AC50 [1]: 29.1 µM [falling, single point]
- AC50 [2]: 0.731 µM [rising, single point]

SMILES: Cc1cc(CN2CCN(CCC#N)CC2)c(O)c(C2(C)CCCCC2)c1
- AC50 [1]: 2.59 µM [rising, partial curve]
- AC50 [2]: 1.03 µM [rising, partial curve]

SMILES: Clc1cccc(COn2c(-c3ccc(Cl)cc3Cl)nc3ncccc32)c1
- cell number change: -18.3%

SMILES: C=CCn1cccc(C(=O)Nc2ccc(F)cc2)c1=O
- cell number change: 10%
- AC50 [2]: 0.0651 µM [rising, full curve, poor fit]

SMILES: O=C(NC1CCCCCCC1)c1cc(-c2ccccn2)nc2ccccc12
- cell number change: 7.06%
- AC50 [1]: 0.0231 µM [falling, full curve, poor fit]
- AC50 [2]: 2.31 µM [falling, partial curve]

SMILES: O=C(CCc1ccc(S(=O)(=O)N2CCOCC2)cc1)N1CCc2ccccc2C1
- cell number change: 42.1%
- AC50 [1]: 29.1 µM [rising, partial curve, poor fit]

SMILES: COC(=O)Cn1c(=NC(=O)c2ccc(OC)c(OC)c2)sc2cc(OC)ccc21
- cell number change: -50%
- AC50 [1]: 29.1 µM [falling, single point]

SMILES: Cn1cccc1C(=O)NCCc1ccccc1
- cell number change: 7.14%
- AC50 [2]: 6.51 µM [rising, partial curve, poor fit]

SMILES: CCOC(=O)C1=C(COC(=O)CSc2ccc(C)cc2C)NC(=O)NC1C (stereo unspecified)
- cell number change: -50%
- AC50 [1]: 29.1 µM [falling, single point]
- AC50 [2]: 29.1 µM [rising, single point]

SMILES: COc1ccc(C(=O)NNC(=O)C2CCN(S(=O)(=O)c3ccc(C)cc3)CC2)cc1
- cell number change: 15.8%

SMILES: C(=N\N1CCN(Cc2ccccc2)CC1)/c1ccccc1
- cell number change: -10.3%
- AC50 [2]: 2.06 µM [rising, partial curve]

SMILES: CCN(C(=O)c1ccc2c(Cl)c3c(nc2c1)CCC3)c1cccc(C)c1
- cell number change: 32%
- AC50 [1]: 2.31 µM [rising, partial curve]
- AC50 [2]: 1.84 µM [rising, partial curve]

SMILES: O=C(Cn1nnc(-c2cccc(C(F)(F)F)c2)n1)NC1CCCC1
- cell number change: 31.3%
- AC50 [1]: 29.1 µM [rising, single point]

SMILES: Cc1cccc(C(=O)O/N=C/c2c(N3CCOCC3)n(C)c3ccccc23)c1
- cell number change: 95.7%
- AC50 [1]: 16.4 µM [rising, partial curve]
- AC50 [2]: 29.1 µM [rising, single point]

SMILES: COc1n[nH]c(C(=O)Nc2nc3ccccc3s2)c1[N+](=O)[O-]
- cell number change: -14%
- AC50 [2]: 0.00461 µM [falling, full curve, poor fit]

SMILES: CC(C)CN(C(=O)CN(C)S(=O)(=O)c1ccc(Cl)cc1)C1CCS(=O)(=O)C1 (stereo unspecified)
- cell number change: -20.2%
- AC50 [2]: 29.1 µM [rising, single point]

SMILES: COc1ccc(-c2cc(-c3cccs3)nc3sc(C#N)c(N)c23)cc1
- cell number change: 50.9%
- AC50 [1]: 29.1 µM [rising, single point]
- AC50 [2]: 6.51 µM [rising, partial curve, poor fit]

SMILES: COc1ccc(C(=O)c2c3ccc(OC)cc3[n+]([O-])n2Cc2ccc(C(N)=O)cc2)cc1
- cell number change: -8.09%
- AC50 [2]: 0.092 µM [rising, full curve]

SMILES: O=C(CCNC(=O)Cn1ccc2ccccc2c1=O)NCCc1ccc(Cl)cc1
- cell number change: -30.7%
- AC50 [1]: 16.4 µM [falling, partial curve]
- AC50 [2]: 18.4 µM [falling, partial curve]

SMILES: COc1ccc(-c2ccnc3nc(Sc4ncc(C(F)(F)F)cc4Cl)nn23)cc1
- cell number change: -36.3%
- AC50 [1]: 14.6 µM [falling, partial curve]

SMILES: CCN1CCC(NC(=O)Nc2ccccc2C(=O)OC)CC1
- cell number change: -29%

SMILES: COc1ccc(-n2cccc2/C=C2\C(=N)N3N=C(C(C)C)SC3=NC2=O)cc1
- cell number change: -20.8%

SMILES: CSc1nc(O)c(/C=C2\C=Nc3ccccc32)[nH]1
- cell number change: 0.548%

SMILES: CCN(CC)c1ccc(C(=O)n2cnc3ccccc32)cc1
- cell number change: -31.9%
- AC50 [1]: 32.6 µM [falling, single point]

SMILES: CCn1c2ccccc2c2nnc(SCC(=O)N3CC(C)OC(C)C3)nc21 (stereo unspecified)
- cell number change: 16.8%

SMILES: CC(=O)Nc1nnc(-c2ccc3c(c2)CCCC3)o1
- cell number change: 12.7%
- AC50 [2]: 1.64 µM [falling, partial curve, poor fit]

SMILES: CCOc1ccc(C(=O)n2cc(C(=O)OC)c3ccccc32)cc1
- cell number change: -23%
- AC50 [2]: 0.651 µM [rising, partial curve, poor fit]

SMILES: Cc1ccc(NC(=O)c2sc(Cl)nc2-c2ccccc2)cc1
- cell number change: -5.26%
- AC50 [2]: 6.51 µM [rising, single point]

SMILES: O=C(CO/N=C/c1ccccc1OC(F)F)NC1CCCC1
- cell number change: -7.25%

SMILES: CCCn1c(=O)c2c(nc3n2CCS3)n(C)c1=O
- cell number change: 14.7%
- AC50 [2]: 29.1 µM [rising, single point]

SMILES: COc1ccc(-c2nc(N)n(C(=O)c3ccccc3Cl)n2)cc1
- cell number change: 33.3%
- AC50 [1]: 32.6 µM [rising, single point]
- AC50 [2]: 5.8 µM [rising, full curve]

SMILES: CC1(C)CC(=O)C(/C=N/n2c(C(F)(F)F)nc3ccccc3c2=O)=C(O)C1
- cell number change: 31.4%
- AC50 [1]: 10.3 µM [rising, partial curve, poor fit]
- AC50 [2]: 6.51 µM [rising, single point]

SMILES: O=C(Cn1cnc2ccccc2c1=O)NCc1ccco1
- cell number change: -13.4%
- AC50 [1]: 0.82 µM [falling, single point]
- AC50 [2]: 23.1 µM [falling, partial curve]

SMILES: COCCCNC(=O)Cn1cnc2sc(C)c(S(=O)(=O)N3CCN(c4ncccn4)CC3)c2c1=O
- cell number change: -8.13%
- AC50 [2]: 4.11 µM [falling, single point]

SMILES: Nc1nc(SCC(=O)N2N=C3/C(=C/c4ccco4)CCCC3C2c2ccco2)n[nH]1 (stereo unspecified)
- cell number change: -12.7%
- AC50 [1]: 0.184 µM [rising, full curve, poor fit]
- AC50 [2]: 2.31 µM [rising, partial curve]

SMILES: CSc1nnc(NC(=O)CCc2ccccc2)s1
- cell number change: -37.7%
- AC50 [1]: 32.6 µM [falling, single point]

SMILES: CN(C)c1ccc(/C=N/n2c(-c3cccnc3)n[nH]c2=S)cc1
- cell number change: 117%
- AC50 [1]: 16.4 µM [rising, partial curve]
- AC50 [2]: 6.51 µM [rising, single point]

SMILES: c1ccc(-c2nnc(-c3ccccc3)c(-c3c[nH]c4ccccc34)n2)cc1
- cell number change: -21.3%
- AC50 [2]: 1.3 µM [falling, full curve]

SMILES: CCOc1ccc(NC(=O)CN(C)CC(=O)Nc2cc(Cl)ccc2C#N)cc1OCC
- AC50 [1]: 0.103 µM [rising, full curve, poor fit]
- AC50 [2]: 6.51 µM [rising, partial curve]

SMILES: COc1ccc(CNC(=O)c2ccccc2SCC(=O)N2CCCC2)cc1OC
- cell number change: -4.02%

SMILES: NC(=O)CN1C(=O)C(O)(CC(=O)/C=C\C=C\c2ccccc2)c2ccccc21 (stereo unspecified)
- cell number change: 3.51%
- AC50 [2]: 0.58 µM [rising, partial curve, poor fit]

SMILES: CCOc1ccccc1C1CC(=O)Nc2cc3c(cc21)OCO3 (stereo unspecified)
- cell number change: -20.5%
- AC50 [2]: 7.31 µM [falling, full curve, poor fit]

SMILES: Cc1nc(-c2ccccc2)sc1C(=O)O
- cell number change: -6.01%

SMILES: COc1ccc(OC)c(CN2CCSCC2)c1
- cell number change: 30.5%

SMILES: S=C(NCCc1ccccn1)Nc1cccc(Cl)c1
- AC50 [1]: 0.13 µM [rising, full curve, poor fit]

SMILES: O=C1C=CCCC1
- cell number change: -1.1%
- AC50 [1]: 0.116 µM [falling, full curve, poor fit]
- AC50 [2]: 0.103 µM [falling, single point]

SMILES: O=C(CN1C(=O)NC2(CCCC2)C1=O)Nc1cc(C(F)(F)F)ccc1N1CCCCC1
- cell number change: 68.4%
- AC50 [1]: 11.6 µM [rising, partial curve]

SMILES: CCCn1nnnc1COc1ccc(C(N)=O)cc1
- cell number change: 44.1%
- AC50 [1]: 13 µM [rising, partial curve, poor fit]

SMILES: O=C(COc1ccccc1)c1cn(CC(=O)N2CCOCC2)c2ccccc12
- cell number change: 7.14%

SMILES: Cc1noc(C)c1-c1ccc2ncnc(NCc3cccc(-c4ccccc4)c3)c2c1
- cell number change: 24.5%

SMILES: CC(=O)c1cccc(N=Nc2c(-c3ccccc3)[nH]n(-c3ccccc3)c2=O)c1
- cell number change: -56.8%
- AC50 [1]: 4.61 µM [falling, full curve]
- AC50 [2]: 4.61 µM [falling, single point]

SMILES: CC(C)CC(=O)N(Cc1ccc(F)cc1)C1CCS(=O)(=O)C1 (stereo unspecified)
- cell number change: -55.7%
- AC50 [1]: 32.6 µM [falling, partial curve]
- AC50 [2]: 20.6 µM [falling, single point]

SMILES: O=C(COc1ccc(CO)cc1Cl)Nc1ccc(F)cc1
- AC50 [1]: 0.58 µM [falling, single point]

SMILES: CNC(=S)Nc1ccc(C23CC4CC(CC(C4)C2)C3)cc1
- cell number change: -38.7%
- AC50 [1]: 14.6 µM [falling, partial curve, poor fit]
- AC50 [2]: 11.6 µM [falling, partial curve]

SMILES: O=C(O)c1ccc(-c2nc3ccccc3s2)o1
- cell number change: 7.51%
- AC50 [2]: 18.4 µM [rising, single point]

SMILES: CC1N(C)c2cc(NC(=O)c3ccco3)ccc2C1(C)C (stereo unspecified)
- cell number change: -84.9%
- AC50 [1]: 29.1 µM [falling, single point]
- AC50 [2]: 32.6 µM [falling, partial curve]

SMILES: Cc1cc(C(=O)OCC(=O)N(C)c2c(N)n(Cc3ccccc3)c(=O)[nH]c2=O)c(C)n1-c1ccccc1
- cell number change: -6.7%
- AC50 [1]: 0.651 µM [falling, full curve]
- AC50 [2]: 0.651 µM [falling, full curve]

SMILES: O=C(CSc1ccc2nnc(-c3ccccn3)n2n1)NCC1CCCO1 (stereo unspecified)
- cell number change: 30.6%
- AC50 [1]: 0.164 µM [rising, full curve]
- AC50 [2]: 29.1 µM [rising, single point]
